Laboratory results published in PMC9551036, “A selective and orally bioavailable VHL-recruiting PROTAC achieves SMARCA2 degradation in vivo” (Nature Communications, 2022).
“And” between values parts separate entries of the source, which are not always exact repeats. Equal entries are not always repeated. The source gives many values for each of these; only a part stands here.

By UniProt entry, the sequences of proteins in these tests, tags left out.
UniProt P51531, whole entry: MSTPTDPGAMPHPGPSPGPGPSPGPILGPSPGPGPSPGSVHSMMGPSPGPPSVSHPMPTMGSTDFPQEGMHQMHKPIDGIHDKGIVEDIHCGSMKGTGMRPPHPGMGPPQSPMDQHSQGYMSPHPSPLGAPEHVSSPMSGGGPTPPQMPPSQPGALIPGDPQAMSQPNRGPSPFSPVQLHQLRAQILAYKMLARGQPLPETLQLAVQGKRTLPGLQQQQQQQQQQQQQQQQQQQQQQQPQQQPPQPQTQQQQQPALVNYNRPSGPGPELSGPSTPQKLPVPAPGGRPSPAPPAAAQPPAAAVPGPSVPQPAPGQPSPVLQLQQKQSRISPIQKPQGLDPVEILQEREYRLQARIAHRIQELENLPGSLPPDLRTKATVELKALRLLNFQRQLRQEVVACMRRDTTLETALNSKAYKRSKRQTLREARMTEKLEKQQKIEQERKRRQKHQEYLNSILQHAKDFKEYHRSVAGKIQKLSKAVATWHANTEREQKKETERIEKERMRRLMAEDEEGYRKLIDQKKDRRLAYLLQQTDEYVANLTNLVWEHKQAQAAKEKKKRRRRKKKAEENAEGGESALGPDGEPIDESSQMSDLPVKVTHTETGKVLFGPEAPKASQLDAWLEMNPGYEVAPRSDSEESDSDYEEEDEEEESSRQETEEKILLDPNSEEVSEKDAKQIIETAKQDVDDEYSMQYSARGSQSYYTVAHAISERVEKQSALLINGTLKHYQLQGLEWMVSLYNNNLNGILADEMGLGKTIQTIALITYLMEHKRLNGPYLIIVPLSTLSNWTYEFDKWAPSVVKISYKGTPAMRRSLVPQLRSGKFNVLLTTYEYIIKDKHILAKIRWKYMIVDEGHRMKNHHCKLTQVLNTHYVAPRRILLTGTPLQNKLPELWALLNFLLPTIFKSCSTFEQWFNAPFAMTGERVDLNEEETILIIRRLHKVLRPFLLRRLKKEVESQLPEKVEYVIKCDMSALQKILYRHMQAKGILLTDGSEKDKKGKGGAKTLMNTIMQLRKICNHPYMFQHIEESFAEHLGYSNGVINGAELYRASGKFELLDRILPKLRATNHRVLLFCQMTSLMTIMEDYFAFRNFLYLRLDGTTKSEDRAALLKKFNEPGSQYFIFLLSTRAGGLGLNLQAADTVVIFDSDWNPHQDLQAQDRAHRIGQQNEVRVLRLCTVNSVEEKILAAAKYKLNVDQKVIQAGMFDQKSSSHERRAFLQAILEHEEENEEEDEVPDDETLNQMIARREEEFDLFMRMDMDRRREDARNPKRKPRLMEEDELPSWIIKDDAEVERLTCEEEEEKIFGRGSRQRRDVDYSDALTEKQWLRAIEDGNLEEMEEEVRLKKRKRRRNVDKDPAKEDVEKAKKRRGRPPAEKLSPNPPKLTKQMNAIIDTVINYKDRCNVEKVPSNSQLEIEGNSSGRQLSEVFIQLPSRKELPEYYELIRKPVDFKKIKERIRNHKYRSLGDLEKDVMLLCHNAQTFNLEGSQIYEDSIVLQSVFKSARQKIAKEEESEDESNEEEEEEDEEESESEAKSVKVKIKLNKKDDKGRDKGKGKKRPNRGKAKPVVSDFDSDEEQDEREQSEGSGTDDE

Target: SMARCA2 (Homo sapiens, UniProt P51531)
Assay: SMARCA2 capillary electrophoresis protein assay in other cell lines (A549, NCI-H1568, HCT116, LU99, HCC-364, HCT-15, HCC4006, SK-N-AS)
Assay type: cell-based
Set-up: endogenous in cells; host or cells: RKO, NCI-H1568, A549, HCT116, LU99, HCC-364, HCT-15, HCC4006, SK-N-AS
Description: 130,000–200,000 cells were seeded in 24-well plates and incubated until settled down or overnight. Compounds were dissolved in DMSO and added to cells in indicated concentrations using a digital dispenser following an optional media change. Cells were incubated for 4 or 18 h as indicated. For SMARCA2/4 half-life determination, 150,000 or 200,000 cells were seeded in 24-well plates. The next day, 50 µg/ml cycloheximide (Sigma) was added and cells were incubated for 1–24 h. For SMARCA2/4 re-synthesis measurements, 200,000 cells were seeded in 24-well plates. The next day, 100 nM compound 6 was added for 4 h to degrade SMARCA2/4, and a sample was taken as baseline for normalisation. To allow re-synthesis, a VHL binder (compound 32, 25 or 50 µM) was then added for 3 or 24 h. Medium was removed, cells were washed with PBS and lysed with 80 µl Lysis Buffer (MSD Tris Lysis Buffer (#R60TX-2) + Halt Inhibitor Cocktail (100x) + Benzonase 0.5 µL/ml). Samples were frozen at −80 °C and thawed at room temperature before use. Samples were transferred to a V-bottom plate and insoluble debris was pelleted by centrifugation for 5 min at maximum speed. The supernatant was transferred to a fresh plate. Master Mix and Ladder were prepared according to manufacturer’s instructions for 12–230 kDa Wes Separation Module, 8 × 25 capillary cartridges, Protein Simple #SM-W004 with Anti-Rabbit Detection Module for Wes, Peggy Sue or Sally Sue, Protein Simple #DM-001. 4.8 µl lysate were mixed with 1.2 µl Master Mix to achieve a protein concentration of ~0.5 µg/µl. Antibodies were diluted in Antibody Diluent II (SMARCA2 Sigma #HPA029981 RRID:AB_10602406 1:25–100, SMARCA4 Cell Signalling #49360 clone D1Q7F RRID:AB_2728743 1:15–120 or Abcam #ab110641 clone EPNCIR111A RRID:AB_10861578 1:60, GAPDH Abcam #ab9485 RRID:AB_307275 1:250). Wes plates were prepared and run according to manufacturer’s instructions. Proteins were quantified with accompanying Compass Software. SMARCA2/4 protein levels were normalised to GAPDH. […] Where applicable, curves were fitted using a 4-parametric logistic model.

With `Cc1ncsc1-c1ccc(C(CCC(C)CCN2CCC(c3ccc4c(c3)n(C3CCCC3)c3nc(=O)c5c(Br)cccc5n43)CC2)NC(=O)C2CC(O)CN2C(=O)C(NC(=O)C2(F)CC2)C(C)(C)C)cc1` (centres unmarked) [ACBI2] the “% protein remaining” value (HCC4006_SM2, log10[concentration (mol/l)] -8) was 81.7716% and 108.051% and 75.827%, the “% protein remaining” value (HCC4006_SM2, log10[concentration (mol/l)] -9) was 125.243% and 159.212% and 103.466% and the “% protein remaining” value (HCC4006_SM2, log10[concentration (mol/l)] -10) was 118.279% and 101.876% and 108.932%. The “% protein remaining” value (HCC-364_SM2, log10[concentration (mol/l)] -6) was 1.845% and 2.699% and 10.7791%, the “% protein remaining” value (HCC-364_SM2, log10[concentration (mol/l)] -8) was 44.9697% and 32.5721% and 54.506% and the “% protein remaining” value (HCC-364_SM2, log10[concentration (mol/l)] -9) was 110.111% and 128.038%. For the same molecule, the “% protein remaining” value (HCT116, SM2, conc 9.54e-12 mol/l) was 109.178% and 116.076%, the “% protein remaining” value (HCT116, SM2, conc 3.81e-11 mol/l) was 125.868% and 135.077% and the “% protein remaining” value (HCT116, SM2, conc 1.53e-10 mol/l) was 114.209% and 133.811%. For the same molecule, the “% protein remaining” value (HCT116, SM2, conc 6.1e-10 mol/l) was 105.682% and 136.5%, the “% protein remaining” value (HCT116, SM2, conc 2.44e-9 mol/l) was 94.7271% and 126.956% and the “% protein remaining” value (HCT116, SM2, conc 9.77e-9 mol/l) was 85.6132% and 103.948%. For the same molecule, the “% protein remaining” value (HCT116, SM2, conc 3.91e-8 mol/l) was 52.5707% and 61.6429%, the “% protein remaining” value (HCT116, SM2, conc 1.56e-7 mol/l) was 28.2623% and 33.3993% and the “% protein remaining” value (HCT116, SM2, conc 6.25e-7 mol/l) was 19.3606% and 22.8633%. The “% protein remaining” value (HCT116, SM2, conc 2.5e-6 mol/l) was 20.1635%, the “% protein remaining” value (HCT116, SM2, conc 1e-5 mol/l) was 30.0895% and the “% protein remaining” value (HCT-15_SM2, log10[concentration (mol/l)] -6) was 11.5726% and 11.5592% and 17.8109%. The “% protein remaining” value (HCT-15_SM2, log10[concentration (mol/l)] -7) was 67.4847% and 59.2301% and 69.1878%, the “% protein remaining” value (HCT-15_SM2, log10[concentration (mol/l)] -8) was 119.67% and 115.981% and 70.5009% and the “% protein remaining” value (HCT-15_SM2, log10[concentration (mol/l)] -10) was 123.272% and 136.831% and 90.4322%. For the same molecule, the “% protein remaining” value (LU99_SM2, log10[concentration (mol/l)] -6) was 12.5582%, the “% protein remaining” value (LU99_SM2, log10[concentration (mol/l)] -9) was 104.244% and 93.8787% and 101.708% and 131.784% and 99.8989% and the “% protein remaining” value (LU99_SM2, log10[concentration (mol/l)] -10) was 107.625% and 126.821% and 111.971% and 126.034% and 118.711%. For the same molecule, the “% protein remaining” value (NCI-H1568, 4h, conc 3.1623e-9 mol/l) was 61.9619%, the “% protein remaining” value (SK-N-AS_SM2, log10[concentration (mol/l)] -6) was 19.2564% and 22.1797% and the “% protein remaining” value (SK-N-AS_SM2, log10[concentration (mol/l)] -8) was 83.0566% and 115.308%. The “% protein remaining” value (SK-N-AS_SM2, log10[concentration (mol/l)] -9) was 135.175% and 115.217% and the “% protein remaining” value (SK-N-AS_SM2, log10[concentration (mol/l)] -10) was 110.512% and 93.3107%.
